## Percent effect of library compounds

Protein sequences, listed by entry. Tags and fused reporters are not part of them.
UniProt I6X8D2, whole entry: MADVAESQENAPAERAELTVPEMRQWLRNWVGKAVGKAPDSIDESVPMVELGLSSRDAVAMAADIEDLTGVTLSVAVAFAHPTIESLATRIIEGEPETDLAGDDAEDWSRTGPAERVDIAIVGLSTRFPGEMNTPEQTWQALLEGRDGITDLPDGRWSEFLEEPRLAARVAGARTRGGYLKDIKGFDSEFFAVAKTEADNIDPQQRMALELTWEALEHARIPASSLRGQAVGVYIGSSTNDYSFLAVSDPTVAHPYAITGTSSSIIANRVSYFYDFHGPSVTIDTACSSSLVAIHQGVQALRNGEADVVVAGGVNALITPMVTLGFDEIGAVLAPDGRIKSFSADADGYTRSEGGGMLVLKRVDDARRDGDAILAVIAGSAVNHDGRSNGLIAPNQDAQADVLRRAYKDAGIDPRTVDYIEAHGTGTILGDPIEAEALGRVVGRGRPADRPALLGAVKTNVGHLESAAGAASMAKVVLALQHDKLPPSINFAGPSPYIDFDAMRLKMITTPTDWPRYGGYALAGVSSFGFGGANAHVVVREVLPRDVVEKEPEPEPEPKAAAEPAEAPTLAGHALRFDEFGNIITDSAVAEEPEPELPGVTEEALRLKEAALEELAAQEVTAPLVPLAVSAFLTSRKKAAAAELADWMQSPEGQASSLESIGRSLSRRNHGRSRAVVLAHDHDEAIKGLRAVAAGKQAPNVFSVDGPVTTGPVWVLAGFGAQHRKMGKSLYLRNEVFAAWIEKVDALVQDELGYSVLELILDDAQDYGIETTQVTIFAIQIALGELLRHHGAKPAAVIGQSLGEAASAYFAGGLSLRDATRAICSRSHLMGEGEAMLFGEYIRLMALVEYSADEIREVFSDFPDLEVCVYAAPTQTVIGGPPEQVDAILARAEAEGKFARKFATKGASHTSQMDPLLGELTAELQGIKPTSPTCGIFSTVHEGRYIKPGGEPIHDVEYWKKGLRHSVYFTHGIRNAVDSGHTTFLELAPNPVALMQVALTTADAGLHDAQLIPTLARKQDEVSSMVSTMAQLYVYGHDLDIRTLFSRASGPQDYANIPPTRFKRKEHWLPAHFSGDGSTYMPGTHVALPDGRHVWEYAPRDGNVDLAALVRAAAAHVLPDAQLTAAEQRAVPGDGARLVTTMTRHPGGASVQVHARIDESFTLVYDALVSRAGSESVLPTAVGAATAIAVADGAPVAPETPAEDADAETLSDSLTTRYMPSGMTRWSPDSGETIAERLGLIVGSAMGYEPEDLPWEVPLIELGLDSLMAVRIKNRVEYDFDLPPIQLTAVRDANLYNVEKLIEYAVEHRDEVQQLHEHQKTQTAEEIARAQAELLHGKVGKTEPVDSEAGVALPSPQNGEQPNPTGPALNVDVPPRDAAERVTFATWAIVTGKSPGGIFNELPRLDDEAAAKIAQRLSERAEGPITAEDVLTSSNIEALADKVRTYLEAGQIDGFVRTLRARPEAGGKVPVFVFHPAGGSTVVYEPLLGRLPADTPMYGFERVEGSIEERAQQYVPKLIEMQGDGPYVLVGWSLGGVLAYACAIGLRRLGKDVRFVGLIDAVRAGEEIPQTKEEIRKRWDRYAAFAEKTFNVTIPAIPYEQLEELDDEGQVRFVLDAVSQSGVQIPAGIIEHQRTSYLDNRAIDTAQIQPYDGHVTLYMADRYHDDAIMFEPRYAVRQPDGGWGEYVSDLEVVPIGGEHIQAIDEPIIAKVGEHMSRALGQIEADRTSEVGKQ

From ChEMBL document CHEMBL3988442, “University of Dundee, Small-Polar-MMV Screening Library” (2021).

Results are given as percent effect. The controls that fix the scale are not given in the record; negative values are as filed. The compounds are a random part of those screened.

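Enzyme assay of the thioesterase domain of polyketide synthase 13; the read-out is not stated. Target: Polyketide synthase Pks13, Mycobacterium tuberculosis (UniProt I6X8D2). Concentration: 30 µM. The record gives no direction; the compounds picked for IC50 retests had high values, so higher reads as stronger inhibition. About 67,000 compounds were tested under these conditions; 0.46% (about 300) showed 50% or more at least once.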

compound | percent effect
Cc1cc(CN2CCN(Cc3cc(C#N)ccc3F)CC2)no1 | -11.67
CC(C)(C)c1nnc(CN2CCN(CC(O)c3ccccc3)CC2)o1 (centres unmarked) | -27.6
O=C(c1ccn(-c2cccc(F)c2)n1)N1CCCC(n2cccn2)C1 (centres unmarked) | -21.39
CC(C)CNC(=O)Nc1cccc(CN2CCOC2=O)c1 | -25.94
CCc1ncc2c(n1)CN(CC(=O)Nc1cc(C)no1)CC2 | -6.529
N#Cc1ccc(N2CCCC3(CCN(c4cncnc4)C3=O)C2)nc1 (centres unmarked) | -11.55
O=C(Cc1ccccc1)NCc1ccc(-c2ccccc2C(=O)O)cn1 | -5.71
Cc1ccccc1CNc1nc(O)cc(C2CC(=O)N(C)C2)n1 (centres unmarked) | -41.75
c1cnnc(N2CCCC2CNCc2nc(-c3ccsc3)no2)c1 (centres unmarked) | -9.371
c1cc(-c2ccc(CN3CCC4(CCNCC4)CC3)s2)[nH]n1 | 1.895
Cn1cccc1C(=O)NCc1cnc2n1CCN(C(=O)N1CCCC1)C2 | -21.36
CCOCC(=O)NC1(c2cccc(Br)c2)CC1 | -9.155
c1cnn(CCNCc2cnc(N3CCOCC3)nc2)c1 | 0.5964
COc1ccccc1CC1CCCN(CC(=O)N2CCOCC2)C1 (centres unmarked) | -15.74
Cc1nc2c(c(NCCc3nc(C)c(Cl)s3)n1)CCNCC2 | 6.275
Cc1noc(C)c1CN1CC[C@H]2OCC[C@@H](C(=O)N3CCCO3)[C@H]2C1 | -9.55
COc1cc(C)sc1C(=O)N1CC(c2cccnc2)C1 | -11.56
O=C1CCCN1Cc1nnc2n1CCCN(C(=O)c1ccco1)C2 | 3.69
CC(C)NC(=O)N1CCC2(CC1)CC[C@@]1(C(=O)N(C)C)CN(C)C[C@@H]21 | -5.191
COCCN1CCC(C(=O)c2cc(F)ccc2F)CC1 | -8.279
Cc1nn(C)c(C)c1C(C)NCc1ccsc1 (centres unmarked) | -10.99
CCN(C)C(=O)CCC(=O)c1cccs1 | -18.23
Cc1cc(=O)[nH]c(NCCNC(=O)C(c2ccc(F)cc2)N(C)C)n1 (centres unmarked) | -10.98
CN(Cc1cnn(C)c1)C(=O)NCc1ccc2c(c1)OCCO2 | -12.7
COCCN1C[C@H]2CN(C(=O)NC(C)C)CCN2C1=O | -6.806
CCCc1nc(N2CCCN3CCC[C@H]3C2)c2cnn(C)c2n1 | 1.448
CCOCc1ccc(CNc2nc(OC)ncc2Cl)cc1 | -10.7
CN(C)c1cc(CNC(=O)Nc2cccnc2N2CCCC2)ccn1 | 23.85
CN(C)Cc1cnc(C2CCN(C(=O)c3cccc(Cl)c3)C2)[nH]1 (centres unmarked) | 2.265
Cc1noc(C)c1CN1CCC2(CC1)C(c1ccccc1)CC(=O)N2C (centres unmarked) | -1.721
Cn1nccc1NC(=O)CN1CCc2sccc2C1 | -12.48
CC(Cn1ccnc1)NC(=O)N(C)Cc1ccsc1 (centres unmarked) | -13.05
CCC(=O)N1CCCC(C(=O)c2cnn(-c3ccc(F)cc3)c2N)C1 (centres unmarked) | -4.158
Cc1ncsc1CN(Cc1ccccc1)Cc1ccncc1 | -27.24
O=C(Nc1nncs1)N(Cc1cccc(F)c1)C1CC1 | -18.83
CC1CCCN(C(=O)c2nnn(-c3ccc(C(F)(F)F)cc3)n2)C1 (centres unmarked) | -10.5
Cc1nnc2n1CCN(Cc1ncc(-c3ccccc3)o1)C2 | -3.625
c1cnn(CC2CN(c3ncnc4ccsc34)CCO2)c1 (centres unmarked) | 3.447
CC(C)n1nc(CN2CCCCC2)c2c1CN(C(=O)c1ccno1)C2 | -6.665
COc1ccc(N(c2ccc(C)cc2)c2ccc(C(=O)O)s2)cc1 | 2.966
CN(Cc1cccc(-n2cccn2)c1)C(=O)c1cccc(N(C)C)c1 | -14.98
CCN1C(=O)CC(c2cnn(C)c2)C12CCN(C(=O)c1ccoc1)CC2 (centres unmarked) | -33.26
CCn1c(NCc2ccco2)nc2c(C)nn(C)c2c1=O | -17.04
Cc1c(S(=O)(=O)NCC(C)C)cnn1C | -2.572
CCn1cc(CNC2CCN(c3cccc(C)c3C)CC2)cn1 | -35.08
O=C(CCc1nnc2ccccn2c1=O)NCc1cccnc1 | -0.6578
Cc1c(OCC(=O)NCc2ccccc2Cl)c(=O)ccn1C | -33.88
CC(O)C1CCN(Cc2cnc3c(-c4ccccc4)cnn3c2)CC1 (centres unmarked) | -30.85
O=C(c1ccccc1N1CCOCC1)N1CCCC1Cn1cccn1 (centres unmarked) | -17.92
COC[C@@]12CCO[C@@H]1CCN(C(=O)C1CCSCC1)C2 | -19.1
CCC(O)CN1CCN(C(=O)Cc2cc(C)ccc2OC)CC1 (centres unmarked) | -15.72
CCn1cnnc1CNC(=O)N(C)Cc1ccc(Cl)cc1Cl | 27.86
Cc1cc(NC(=O)CN2CCC(N3CCNC3=O)CC2)on1 | -25.32
COc1cc(CNCCc2cc(F)cc3c2OCOC3)cc(OC)c1 | -9.936
COc1ccccc1C(C)N1CCN(S(=O)(=O)N(C)C)CC1 (centres unmarked) | -8.066
COc1ncccc1NC(=O)NCC1CCS(=O)(=O)C1 (centres unmarked) | -8.05
CS(=O)(=O)c1ccc2c(c1)nc1n2[C@@H](CNCc2cccnc2)COC1 | -27.24
CC(C)(C)n1cc(C2=CCN(CCc3ccccn3)CC2)cn1 | -29.51
O=S(=O)(c1ccc(F)cc1Cl)N1CCCC1c1ccncc1 (centres unmarked) | -89.08
COc1ccnc(N2CCN(C(=O)c3cscn3)CC2)n1 | -27.85

Repeated from the top, 6 entries:

For Cc1cc(CN2CCN(Cc3cc(C#N)ccc3F)CC2)no1 the result was -11.67%.
For CC(C)(C)c1nnc(CN2CCN(CC(O)c3ccccc3)CC2)o1 (centres unmarked) the result was -27.6%.
For O=C(c1ccn(-c2cccc(F)c2)n1)N1CCCC(n2cccn2)C1 (centres unmarked) the result was -21.39%.
For CC(C)CNC(=O)Nc1cccc(CN2CCOC2=O)c1 the result was -25.94%.
For CCc1ncc2c(n1)CN(CC(=O)Nc1cc(C)no1)CC2 the result was -6.529%.
For N#Cc1ccc(N2CCCC3(CCN(c4cncnc4)C3=O)C2)nc1 (centres unmarked) the result was -11.55%.